# Among all 390,000 compounds or so, about 910 (0.23%) were called active. Inconclusive results, whose numbers are uncertain, are shown with a selection of clear calls. The call rests on the fitted dose curve; in most records, active means well fitted inhibition curve with a large enough effect; inconclusive means small, poorly fitted or top-dose-only effect; inactive means no such curve, though single readings can be large or run the other way. Potencies of inconclusive entries are doubtful fits and often do not repeat.
# By UniProt entry, the sequences of proteins in these tests, tags left out. Where a name states a change or a piece, a line headed by the entry shows the natural chain unless it says otherwise.
# UniProt O94782: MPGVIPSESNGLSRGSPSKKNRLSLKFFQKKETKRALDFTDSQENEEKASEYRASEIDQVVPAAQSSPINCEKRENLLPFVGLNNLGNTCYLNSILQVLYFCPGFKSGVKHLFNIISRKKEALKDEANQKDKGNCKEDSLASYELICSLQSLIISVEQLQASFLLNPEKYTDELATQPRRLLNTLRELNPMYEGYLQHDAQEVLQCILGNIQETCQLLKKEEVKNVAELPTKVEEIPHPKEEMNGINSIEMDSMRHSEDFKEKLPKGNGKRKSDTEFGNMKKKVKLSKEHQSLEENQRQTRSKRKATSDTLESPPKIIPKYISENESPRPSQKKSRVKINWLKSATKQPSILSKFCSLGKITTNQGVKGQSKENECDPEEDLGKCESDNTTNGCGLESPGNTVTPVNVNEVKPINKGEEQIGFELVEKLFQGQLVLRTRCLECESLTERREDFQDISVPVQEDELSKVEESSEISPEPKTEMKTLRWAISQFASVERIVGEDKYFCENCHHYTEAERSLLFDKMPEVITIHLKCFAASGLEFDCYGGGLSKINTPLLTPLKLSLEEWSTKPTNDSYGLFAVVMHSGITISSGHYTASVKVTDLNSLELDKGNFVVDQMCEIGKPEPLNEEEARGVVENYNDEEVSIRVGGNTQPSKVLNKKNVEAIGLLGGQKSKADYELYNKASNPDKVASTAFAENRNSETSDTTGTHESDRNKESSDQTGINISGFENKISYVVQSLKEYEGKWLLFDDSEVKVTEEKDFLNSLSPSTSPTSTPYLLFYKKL
# Target: Ubiquitin carboxyl-terminal hydrolase 1 (Homo sapiens) (UniProt O94782)
# Test: Inhibitors of USP1/UAF1: Primary Screen; further: nearly all actives have a fitted effect of over 60% in size
# Conditions: recombinant USP1/UAF1, Ub-Rhodamine cleavage fluorescence; activity change, negative = inhibition: at 57.1 µM (top of the series)
# How it was run: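 Step one: compound is pinned into 1nM USP1/UAF1 in HEPES pH 7.8 buffer with TCEP. Step two: 15 min room-temperature incubation. Step three: Ub-Rho (150nM final) starts cleavage, tracked by fluorescence over six one-minute reads.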
# On the % scale 0 is the no-effect control and ±100 the full control effect; potency means the concentration at half of the fitted maximal effect.
Structure (SMILES),Potency,"activity change, negative = inhibition"
COc1ccc(OC)c(-c2cc(C(=O)N/N=C/c3ccc(F)cc3)c3ccccc3n2)c1,"inconclusive: 5.01 µM [inhibitor, partial curve]",
O=C(COC(=O)c1ccc2ccccc2c1O)NCC(F)(F)F,inactive,
CCCCN(CC)c1nc(N)c2c(N)nc(OCC)cc2c1C#N,"inconclusive: 28.2 µM [inhibitor, single point]",
Cn1cc(/C=C2\SC(=S)N(NC(=O)c3cccc(Cl)c3)C2=O)c2ccccc21,"inconclusive: 7.08 µM [inhibitor, full curve]",
O=C(NCc1ccccc1)NC1COc2ccccc2C1 (stereo unspecified),"inconclusive: 112 µM [inhibitor, partial curve, poor fit]",
C/C(=N\NC(=O)CN(c1ccccc1Br)S(C)(=O)=O)c1cccs1,"inconclusive: 31.6 µM [inhibitor, partial curve]",
Cc1ccc(C)c(S(=O)(=O)Nc2ccc(O)c(Sc3ncn[nH]3)c2)c1,"inconclusive: 39.8 µM [inhibitor, partial curve]",
COC(=O)c1cc2sccc2n1Cc1nc(-c2cccc(Cl)c2)oc1C,"inconclusive: 14.1 µM [inhibitor, partial curve, poor fit]",
Cc1ccccc1C(=O)Nc1ccc(N2CCCCCC2)cc1,"inconclusive: 56.2 µM [inhibitor, partial curve, poor fit]",
CCN1CCN(CC(O)COc2ccc(C)c(C)c2)CC1 (stereo unspecified),"inconclusive: 17.8 µM [inhibitor, partial curve]",
COc1ccc(-c2csc(NC(=O)C3CC(=O)N(c4ccc5c(c4)OCCO5)C3)n2)cc1 (stereo unspecified),inactive,
CN=C1SC(CC(=O)Nc2ccccc2F)C(=O)N1C (stereo unspecified),,inconclusive: -29.1% [inhibitor]
CCOc1ccccc1NC(=O)CSc1ncc2c(n1)-c1ccccc1N(CC)S2(=O)=O,inactive,
CCOC(=O)c1ccc(NC(=O)Cc2noc3ccc(C)cc23)cc1,"inconclusive: 39.8 µM [inhibitor, partial curve, poor fit]",
Cc1nn(Cc2ccc(F)cc2)c(C)c1NC(=O)c1noc2c1CCc1ccccc1-2,"inconclusive: 39.8 µM [inhibitor, partial curve, poor fit]",
O=C(CSc1nc(C2CC2)nc2ccccc12)Nc1cccc(O)c1,"inconclusive: 8.91 µM [inhibitor, partial curve]",
COc1cccc(CNC(=O)CN2C(=O)COc3ccc(S(=O)(=O)N4CCCCC4)cc32)c1,"inconclusive: 31.6 µM [inhibitor, single point]",
CCOc1ccc2nc(NC3=NC(c4ccc(OC)cc4)CC(=O)N3)nc(C)c2c1 (stereo unspecified),"inconclusive: 39.8 µM [inhibitor, partial curve, poor fit]",
Cn1c(=O)c2c(nc(NCc3ccco3)n2CCc2ccccc2)n(C)c1=O,"inconclusive: 28.2 µM [inhibitor, single point]",
COc1cc(C(=O)N/N=C(\C)c2ccc3c(c2)OCO3)cc(OC)c1OC,"inconclusive: 31.6 µM [inhibitor, partial curve]",
CC(C)c1ccc(C2CC(=O)N3CN(C4CCCCC4)CSC3=C2C#N)cc1 (stereo unspecified),"inconclusive: 20 µM [inhibitor, partial curve]",

Structure (SMILES),Potency,"activity change, negative = inhibition"
COc1ccc(CN(C)CC(=O)c2c(N)n(Cc3ccccc3)c(=O)n(C)c2=O)c(OC)c1,"inconclusive: 7.08 µM [inhibitor, single point]",
FC(F)(F)c1cccc(Nc2nc3nonc3nc2Nc2ccc(Cl)cc2)c1,inactive,
CCN(CC)CCC(=O)Nc1cccc2c1C(=O)c1ccccc1C2=O,"inconclusive: 39.8 µM [inhibitor, partial curve, poor fit]",
O=C(COc1ccccc1-c1nc(-c2ccccc2)no1)Nc1ccc([N+](=O)[O-])cc1,inactive,
O=C(NC1CCCCC1)c1ccc(CSc2nc3cccnc3n2Cc2ccccc2)cc1,"inconclusive: 4.47 µM [inhibitor, partial curve]",
COc1ccccc1C1C(C#N)=C(N)Oc2c1oc(CO)cc2=O (stereo unspecified),inactive,
COc1cc(C2Nc3cc(Cl)c(S(N)(=O)=O)cc3S(=O)(=O)N2)ccc1OCc1ccccc1 (stereo unspecified),"inconclusive: 31.6 µM [inhibitor, partial curve]",
CN(Cc1ccccc1)C(=O)[C@@H]1CCCN1S(=O)(=O)c1ccc(Cl)cc1,inactive,
COc1ccc(-c2nc3cnccn3c2NC2CCCCC2)cc1-c1cccc(Cl)c1,"inconclusive: 39.8 µM [inhibitor, partial curve]",
Cc1cc(C(=O)N/N=C/C(Cl)=C/c2ccccc2)c(C)o1,inactive,
O=C(/C=C/c1cccc([N+](=O)[O-])c1)c1ccco1,inactive,
COc1ccc(C(=O)OCC(=O)Nc2c(C)cccc2C)c(OC)c1OC,"inconclusive: 56.2 µM [inhibitor, single point]",
CCOc1ccc(-c2cc(C(=O)NCCc3ccc(C)cc3)c3ccccc3n2)cc1,inactive,
C=CCN(c1ccccc1OC)S(=O)(=O)c1cccc(C(=O)NC2=NCCS2)c1,"inconclusive: 0.282 µM [inhibitor, full curve]",
COc1cc(OC)c2ccc(=O)oc2c1C(CC(=O)N1CCCC(C)C1)c1ccc2c(c1)OCO2 (stereo unspecified),"inconclusive: 8.91 µM [inhibitor, partial curve, poor fit]",
COc1ccc(OC)c(-c2noc(N3CCN(c4cccc(C(F)(F)F)c4)CC3)n2)c1,"inconclusive: 39.8 µM [inhibitor, partial curve]",
COc1ccc(CNc2ccc(C)cc2)cc1Br,"inconclusive: 35.5 µM [inhibitor, partial curve]",
COCCCn1c(SCC(=O)Nc2ccc(OC)cc2)nc2c(sc3ccccc32)c1=O,"inconclusive: 5.62 µM [inhibitor, partial curve, poor fit]",
N#C/C(=C\c1ccc(-c2ccc(C(=O)O)cc2)o1)C(=O)Nc1ccc(F)cc1,"inconclusive: 44.7 µM [inhibitor, partial curve, poor fit]",
O=C(N/N=C/c1ccc(-c2ccccc2[N+](=O)[O-])o1)c1cccnc1,"inconclusive: 15.8 µM [inhibitor, partial curve, poor fit]",

# A section taken from the entries so far, as a working copy:
Structure (SMILES),Potency,"activity change, negative = inhibition"
COC(=O)c1cc2sccc2n1Cc1nc(-c2cccc(Cl)c2)oc1C,"inconclusive: 14.1 µM [inhibitor, partial curve, poor fit]",
Cc1ccccc1C(=O)Nc1ccc(N2CCCCCC2)cc1,"inconclusive: 56.2 µM [inhibitor, partial curve, poor fit]",
CCN1CCN(CC(O)COc2ccc(C)c(C)c2)CC1 (stereo unspecified),"inconclusive: 17.8 µM [inhibitor, partial curve]",
COc1ccc(-c2csc(NC(=O)C3CC(=O)N(c4ccc5c(c4)OCCO5)C3)n2)cc1 (stereo unspecified),inactive,
CN=C1SC(CC(=O)Nc2ccccc2F)C(=O)N1C (stereo unspecified),,inconclusive: -29.1% [inhibitor]
CCOc1ccccc1NC(=O)CSc1ncc2c(n1)-c1ccccc1N(CC)S2(=O)=O,inactive,
CCOC(=O)c1ccc(NC(=O)Cc2noc3ccc(C)cc23)cc1,"inconclusive: 39.8 µM [inhibitor, partial curve, poor fit]",
Cc1nn(Cc2ccc(F)cc2)c(C)c1NC(=O)c1noc2c1CCc1ccccc1-2,"inconclusive: 39.8 µM [inhibitor, partial curve, poor fit]",
O=C(CSc1nc(C2CC2)nc2ccccc12)Nc1cccc(O)c1,"inconclusive: 8.91 µM [inhibitor, partial curve]",

# — PubChem BioAssay AID743255 (National Center for Advancing Translational Sciences (NCATS), 2014)
